Assay results: patent publication US20040208922A1, “Method for loading lipid like vesicles with drugs or other chemicals” (The Regents of the University of California, priority 1995, published 2004)

What was measured:
[1] = Loading of hydrophobic ions (cyanine dye) into vesicles by pH-gradient-generated electrical potential; format: physicochemical; details: 10 uM dye
[2] = Efflux of spin-labeled acid out of dialysis tubing containing vesicles (ESR signal); format: physicochemical

Structure (SMILES)	external cyanine concentration ([1]; internal volume about 10%)	final cyanine concentration inside the vesicles ([1]; internal volume about 10%)	final accumulation relative to the aqueous solution outside of the vesicles ([1]; vesicles pH 4.5 inside, mixture pH 7.4, about 180 millivolts negative inside)	ESR signal leaking out of dialysis tubing ([2]; No pH gradient, 3 min)	ESR signal leaking out of dialysis tubing ([2]; No pH gradient, 10 min)	ESR signal leaking out of dialysis tubing ([2]; No pH gradient, 20 min)	ESR signal leaking out of dialysis tubing ([2]; No pH gradient, 40 min)	ESR signal, internal (intradialysis concentration at end of incubation) ([2]; No pH gradient)	ESR signal leaking out of dialysis tubing ([2]; pH gradient, 15 min)	ESR signal leaking out of dialysis tubing ([2]; pH gradient, 30 min)	ESR signal leaking out of dialysis tubing ([2]; pH gradient, 45 min)	ESR signal, internal (intradialysis concentration at end of incubation) ([2]; pH gradient)
CCN1/C(=C/C=C/C=C/c2sc3ccccc3[n+]2CC)Sc2ccccc21.[I-] [dithiasanine iodide]	about 100 nM	about 100 uM	a thousand fold	–	–	–	–	–	–	–	–	–
CC1(C)CC(NC(=O)CCC(=O)O)CC(C)(C)N1[O] [spin-labeled carboxylic acid]	–	–	–	0.09	0.15	0.17	0.18	0.24	0.11	0.12	0.15	3.0
